Measured values reported in patent EP0369664B1 (THE SALK INSTITUTE FOR BIOLOGICAL STUDIES, priority 1988, dated 1994).
Some peptides are written in HELM: one residue between dots, names in brackets for other building blocks, links after the first $.

Assay: Boc solid-phase peptide synthesis; MBHA resin; carbodiimides such as N,N'-diisopropyl carbodiimide
Conditions: whole synthesis, HPLC

With “PEPTIDE1{S.E.E.P.P.I.S.L.D.L.T.F.H.L.L.R.E.V.L.E.M.A.R.A.E.Q.L.A.Q.Q.A.H.S.N.R.K.M.M.E.I.F.[am]}$$$$V2.0” the “final purity (method not given)” value was “about 95%”.
